PubChem BioAssay AID1224830, NIAID, 2016

Assay: 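Host factors that control LPS-induced TNF expression in human macrophages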 (primary screen)
System: human THP-1 monocytic leukaemia cells, TNF dual-luciferase reporter clone, PMA-differentiated to macrophage-like cells
Reagent: siRNA pool against human genes, 50 nM
Duration: LPS for 4 h, given about 3 days after siRNA transfection
Treatment: bacterial LPS (TLR4 ligand), 10 ng/ml
Measurement: 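TNF firefly reporter luminescence divided by renilla, normalised to the plate median, then turned into a robust z-score for each replicate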
Direction: TNF reporter robust z-score: higher = stronger TNF reporter response to LPS
Call rule: 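Each well counts as active if its z-score is over 2.8 or under -1.5; controls are left without a call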
In all, the deposit lists about 18,000 reagents; shown is a random part of them. Of all reagents, about 2,900 (16%) got an active call. 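Calls are made per well; low scores hint the gene aids the LPS response, high scores that it dampens it.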 Unmarked entries are inactive. Repeated entries: four replicate wells of each siRNA pool.

no.	Gene	TNF reporter robust z-score
1	HLA-G (GeneID 3135)	-0.74
2	HLA-G (GeneID 3135)	-1.03
3	HLA-G (GeneID 3135)	-0.47
4	HLA-G (GeneID 3135)	-0.53
5	GIP (GeneID 2695)	-0.65
6	GIP (GeneID 2695)	-1.21
7	GIP (GeneID 2695)	0.18
8	GIP (GeneID 2695)	0.57
9	MMP14 (GeneID 4323)	0.62
10	MMP14 (GeneID 4323)	0.72
11	MMP14 (GeneID 4323)	-0.19
12	MMP14 (GeneID 4323)	-0.06
13	THAP5 (GeneID 168451)	0.41
14	THAP5 (GeneID 168451)	-0.19
15	THAP5 (GeneID 168451)	-0.57
16	RANBP10 (GeneID 57610)	0.09
17	RANBP10 (GeneID 57610)	0.08
18	RANBP10 (GeneID 57610)	0.48
19	RANBP10 (GeneID 57610)	0.23
20	GFRA3 (GeneID 2676)	1.66
21	GFRA3 (GeneID 2676)	1.43
22	GFRA3 (GeneID 2676)	0.59
23	GFRA3 (GeneID 2676)	1.04
24	GDF7 (GeneID 151449)	-0.22
25	GDF7 (GeneID 151449)	0.22
26	GDF7 (GeneID 151449)	0.8
27	GDF7 (GeneID 151449)	0.82
28	DPP7 (GeneID 29952)	1.8
29	DPP7 (GeneID 29952)	1.46
30	DPP7 (GeneID 29952)	0.72
31	DPP7 (GeneID 29952)	1.75
32	PEG10 (GeneID 23089)	1.23
33	PEG10 (GeneID 23089)	-0.1
34	PEG10 (GeneID 23089)	3.33 (active)
35	PEG10 (GeneID 23089)	2.83 (active)
36	HSPA14 (GeneID 51182)	-0.79
37	HSPA14 (GeneID 51182)	-0.2
38	HSPA14 (GeneID 51182)	-0.68
39	HSPA14 (GeneID 51182)	-0.32
40	MANEAL (GeneID 149175)	0.58
41	MANEAL (GeneID 149175)	-1.03
42	MANEAL (GeneID 149175)	-0.89
43	MANEAL (GeneID 149175)	-0.75
44	ZBED3 (GeneID 84327)	0.07
45	ZBED3 (GeneID 84327)	-0.77
46	ZBED3 (GeneID 84327)	-0.12
47	ZBED3 (GeneID 84327)	-0.52
48	PEBP1 (GeneID 5037)	-0.76
49	PEBP1 (GeneID 5037)	-0.85
50	PEBP1 (GeneID 5037)	-1.78 (active)
51	PEBP1 (GeneID 5037)	-0.99
52	ZNF549 (GeneID 256051)	0.52
53	ZNF549 (GeneID 256051)	-0.34
54	ZNF549 (GeneID 256051)	-0.65
55	ZNF549 (GeneID 256051)	0.37
56	IGSF21 (GeneID 84966)	-0.08
57	IGSF21 (GeneID 84966)	-0.57
58	IGSF21 (GeneID 84966)	0.45
59	IGSF21 (GeneID 84966)	0.87
60	OR4A16 (GeneID 81327)	0
61	OR4A16 (GeneID 81327)	0.85
62	OR4A16 (GeneID 81327)	0.01
63	OR4A16 (GeneID 81327)	0.4
64	CCDC3 (GeneID 83643)	-0.75
65	CCDC3 (GeneID 83643)	-0.31
66	CCDC3 (GeneID 83643)	-0.69
67	CCDC3 (GeneID 83643)	0.21
68	SH2D2A (GeneID 9047)	1.78
69	SH2D2A (GeneID 9047)	1.82
70	SH2D2A (GeneID 9047)	1.74
71	SH2D2A (GeneID 9047)	1.8
72	CRAMP1 (GeneID 57585)	-0.76
73	CRAMP1 (GeneID 57585)	-0.78
74	CRAMP1 (GeneID 57585)	-1.19
75	CRAMP1 (GeneID 57585)	-0.66
76	MGA (GeneID 23269)	1.95
77	MGA (GeneID 23269)	0.17
78	MGA (GeneID 23269)	0.33
79	MGA (GeneID 23269)	-0.48
80	FZD5 (GeneID 7855)	-0.54
81	FZD5 (GeneID 7855)	-0.27
82	FZD5 (GeneID 7855)	-1.06
83	FZD5 (GeneID 7855)	-0.15
84	COL24A1 (GeneID 255631)	0.51
85	COL24A1 (GeneID 255631)	1.19
86	COL24A1 (GeneID 255631)	0.56
87	COL24A1 (GeneID 255631)	-0.59
88	OR2F1 (GeneID 26211)	-1.53 (active)
89	OR2F1 (GeneID 26211)	-1.44
90	OR2F1 (GeneID 26211)	-1.55 (active)
91	OR2F1 (GeneID 26211)	-1.36
92	IFT57 (GeneID 55081)	-0.34
93	IFT57 (GeneID 55081)	0.16
94	IFT57 (GeneID 55081)	1.56
95	IFT57 (GeneID 55081)	0.06
96	SUSD4 (GeneID 55061)	-1.49
97	SUSD4 (GeneID 55061)	0
98	SUSD4 (GeneID 55061)	-1.04
99	SUSD4 (GeneID 55061)	-0.46
100	ANKRD24 (GeneID 170961)	0.45
101	ANKRD24 (GeneID 170961)	-0.07
102	ANKRD24 (GeneID 170961)	2.07
103	ANKRD24 (GeneID 170961)	2.34
104	IGF1 (GeneID 3479)	-0.98
105	IGF1 (GeneID 3479)	-0.17
106	IGF1 (GeneID 3479)	-0.25
107	IGF1 (GeneID 3479)	-0.71
108	ACOX2 (GeneID 8309)	1.88
109	ACOX2 (GeneID 8309)	1.92
110	ACOX2 (GeneID 8309)	2.25
111	ACOX2 (GeneID 8309)	2.35
112	TRMT2B (GeneID 79979)	-0.1
113	TRMT2B (GeneID 79979)	0.09
114	TRMT2B (GeneID 79979)	0
115	TRMT2B (GeneID 79979)	0.61
116	FKRP (GeneID 79147)	0.46
117	FKRP (GeneID 79147)	0.49
118	FKRP (GeneID 79147)	0.29
119	FKRP (GeneID 79147)	1.88
120	MGAT2 (GeneID 4247)	-1.41
121	MGAT2 (GeneID 4247)	-1.88 (active)
122	MGAT2 (GeneID 4247)	-1.6 (active)
123	MGAT2 (GeneID 4247)	-1.29
124	ISLR2 (GeneID 57611)	-0.75
125	ISLR2 (GeneID 57611)	-0.87
126	ISLR2 (GeneID 57611)	0.22
127	ISLR2 (GeneID 57611)	0.24
128	EN1 (GeneID 2019)	-1.15
129	EN1 (GeneID 2019)	-1.37
130	EN1 (GeneID 2019)	-0.9
131	EN1 (GeneID 2019)	-0.37
132	USP16 (GeneID 10600)	-0.19
133	USP16 (GeneID 10600)	1.09
134	USP16 (GeneID 10600)	-0.06
135	USP16 (GeneID 10600)	-0.03
136	FOXA2 (GeneID 3170)	0.07
137	FOXA2 (GeneID 3170)	-0.14
138	FOXA2 (GeneID 3170)	-0.78
139	FOXA2 (GeneID 3170)	1.14
140	ANO9 (GeneID 338440)	-0.61
141	ANO9 (GeneID 338440)	-0.14
142	ANO9 (GeneID 338440)	-0.51
143	ANO9 (GeneID 338440)	-0.03

19 neighbouring records from above:
no.	Gene	TNF reporter robust z-score
51	PEBP1 (GeneID 5037)	-0.99
52	ZNF549 (GeneID 256051)	0.52
53	ZNF549 (GeneID 256051)	-0.34
54	ZNF549 (GeneID 256051)	-0.65
55	ZNF549 (GeneID 256051)	0.37
56	IGSF21 (GeneID 84966)	-0.08
57	IGSF21 (GeneID 84966)	-0.57
58	IGSF21 (GeneID 84966)	0.45
59	IGSF21 (GeneID 84966)	0.87
60	OR4A16 (GeneID 81327)	0
61	OR4A16 (GeneID 81327)	0.85
62	OR4A16 (GeneID 81327)	0.01
63	OR4A16 (GeneID 81327)	0.4
64	CCDC3 (GeneID 83643)	-0.75
65	CCDC3 (GeneID 83643)	-0.31
66	CCDC3 (GeneID 83643)	-0.69
67	CCDC3 (GeneID 83643)	0.21
68	SH2D2A (GeneID 9047)	1.78
69	SH2D2A (GeneID 9047)	1.82
